1 molecule from paper PMC4313621, “Hydrophobic mismatch sorts SNARE proteins into distinct membrane domains” (Nature Communications, 2015) can be followed below.

Protein sequences, listed by entry. Tags and fused reporters are not part of them. Residues count along the entry.
UniProt P32851, residues 266-288: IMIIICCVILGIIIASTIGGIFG

These are yes or no findings as the source states them, for the method shown. Some entries that bind do so weakly or less than the wild type.

Test [1] concerns the target Syntaxin 1 TMD (residues 266-288; sx-1TM) (Rattus norvegicus) (UniProt P32851). Put plainly: FRET or BRET; labelled TMD peptides in liposomes of C18:1 PC or an equimolar mixture of C14:1, C16:1, C18:1 and C20:1 PC; all with 1 mol% PI(4,5)P2 and 30 mol% cholesterol; both purified.
Test [2] has the same target. Nature of the test: FRET or BRET; sx-1TM-Rhodamine Red (donor) and sx-4TM-Atto647N (acceptor) in LUVs of porcine brain PC without or with 1 mol% PI(4,5)P2 and/or 30 mol% cholesterol; protein-to-lipid 1:1000; both purified. For orientation: BRET reads energy transfer from a luciferase to a nearby fluorophore.

On to ALENQKKARKKKVLIAICVSITVVLLAVIIGVTVVG (peptide, UniProt Q12846 262-297, Rhodamine Red or Atto647N coupled to the N-terminus) [Syntaxin 4 TMD (residues 262-297; sx-4TM)], for which the binding result in test [1] and in test [2] was “binds” in each case.
